Measured values reported in patent publication US20240301218A1 (THE UNIVERSITY OF BRITISH COLUMBIA, priority 2021, published 2024).

Assay: Fmoc solid-phase peptide synthesis
Settings: whole synthesis, analytical RP-HPLC and LC-MS

KRWRIRVRVIRK-bA-bA-C—NH2
final HPLC purity: >90%
